# From the supplement of paper PMC12889115
# The other results are listed elsewhere or left out. These are raw signals, not scaled to a control.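 First-pass screen: polymyxin B was added at a level that permeabilizes the Salmonella outer membrane while sparing the inner membrane. DMSO wells, with and without polymyxin B, defined maximum growth. Because plates differed from one another, each plate's data were ranked separately and the compounds with the lowest OD600 were carried forward as hits.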
# Tested on: Salmonella enterica serovar Typhimurium SL1344
# Test: bacterial growth OD600 after 18 h with compound and polymyxin B; higher = more bacterial growth (less inhibition)
# Conditions: 50 µM, Mueller-Hinton broth
smiles,measurement,setting,value
CN(C)CCOc1cccc(CN(Cc2ccccn2)C(=O)Cc2ccc(F)cc2)c1,bacterial growth OD600,polymyxin B 0.75 µg/mL,0.842
C=CC[C@@H]1CC=C[C@@H](c2ccccc2)N1C(=O)CCC1(Cc2ccc(SC)cc2)CCC(=O)N1 (stereo not given in full),bacterial growth OD600,polymyxin B 0.75 µg/mL,0.001
COc1cc(NC(=O)CCC2CCCN(C(=O)CCN3CCCO3)C2)cc(OC)c1 (stereo not given),bacterial growth OD600,polymyxin B 1 µg/mL,1
Cc1nonc1C1CCCN1C(=O)c1ccc2nc(C3CCCCC3)oc2c1 (stereo not given),bacterial growth OD600,polymyxin B 1 µg/mL,0.678
CCC(O)C1CCN(C(=O)c2cc(COc3ccc(F)cc3F)on2)CC1 (stereo not given),bacterial growth OD600,polymyxin B 1 µg/mL,0.965
COCC1CCN(C(=O)CC(c2ccccc2)c2ccccc2Cl)CC1 (stereo not given),bacterial growth OD600,polymyxin B 0.75 µg/mL,0.254
CCCNCC1(O)CCCN(CC(C)(C)C)C1=O (stereo not given),bacterial growth OD600,polymyxin B 0.75 µg/mL,0.829
Cc1cc(C)n(CCC(=O)N2CCC(n3nccc3NC(=O)CC(C)C)CC2)n1,bacterial growth OD600,polymyxin B 1 µg/mL,0.904
COCCn1cc(C(=O)NCC2(c3ccccc3)CCCC2)c(=O)c(C(=O)N2C[C@@H](C)O[C@@H](C)C2)c1,bacterial growth OD600,polymyxin B 0.75 µg/mL,0.793
Cc1c(C(C)NC2CCCC2)cnn1-c1ccc(F)cc1F (stereo not given),bacterial growth OD600,polymyxin B 1 µg/mL,0.938
CCC(C)C(=O)NCC1Cc2cc(C)cc(-c3cc(C(C)=O)ccc3F)c2O1 (stereo not given),bacterial growth OD600,polymyxin B 0.75 µg/mL,0.718
Cc1ccc(-n2cccn2)c(CN2CCC(n3nccc3NC(=O)C3CC3)CC2)c1,bacterial growth OD600,polymyxin B 1 µg/mL,0.857
O=C(NC1CCCN(Cc2ccccc2F)C1)C1=CCCC1 (stereo not given),bacterial growth OD600,polymyxin B 1 µg/mL,1.04
CCCCC1CN(CCC(=O)NC(C)Cc2cncs2)Cc2ccccc2O1 (stereo not given),bacterial growth OD600,polymyxin B 0.75 µg/mL,0.817
COc1cc(NC(=O)CCC2CCCN(C(=O)CCN3CCCC3=O)C2)cc(OC)c1 (stereo not given),bacterial growth OD600,polymyxin B 1 µg/mL,0.914
O=C(c1cn[nH]c1)N1CCC(C2CCN(Cc3ccc(Cl)cc3)C2)CC1 (stereo not given),bacterial growth OD600,polymyxin B 1 µg/mL,0.928
CN1CCCCC1CCNC(=O)c1ccc(N2CCN(CC3CC3)CC2)nc1 (stereo not given),bacterial growth OD600,polymyxin B 0.75 µg/mL,0.826
CCOC(=O)C1(Cc2ccccc2)CCN(Cc2ccc(OC)c(OCC)c2)CC1,bacterial growth OD600,polymyxin B 1 µg/mL,0.849
O=C(c1ccc(N2CCOCC2)nc1)N1CCCC(c2ccccc2)CC1 (stereo not given),bacterial growth OD600,polymyxin B 1 µg/mL,1.05
COc1cccc(C(=O)N2CCc3c(cnc(C)c3CNC(=O)Cc3ccsc3)C2)c1OC,bacterial growth OD600,polymyxin B 0.75 µg/mL,0.757
CN(Cc1ccccn1)C(=O)C1CCCN(C2CCN(Cc3ccccc3)CC2)C1 (stereo not given),bacterial growth OD600,polymyxin B 0.75 µg/mL,0.707
FC(F)Oc1ccc(CN2CCOc3ccc(CN4CCC(Oc5cccnc5)CC4)cc3C2)cc1,bacterial growth OD600,polymyxin B 0.75 µg/mL,0.402
O=C1CC(NCc2ncc[nH]2)CN1Cc1cccc2ccccc12 (stereo not given),bacterial growth OD600,polymyxin B 1 µg/mL,0.924
c1ccc(OCc2noc(-c3ccc(NCc4cccnc4)nc3)n2)cc1,bacterial growth OD600,polymyxin B 1 µg/mL,0.704
CNC(=O)CC(c1ccccc1)c1ccccc1Cl (stereo not given),bacterial growth OD600,polymyxin B 1 µg/mL,0.776
O=C(NCCN1CCOCC1)c1ccc(N2CCC(NCc3cccc(-n4cccn4)c3)CC2)cc1,bacterial growth OD600,polymyxin B 0.75 µg/mL,0.821
COCc1ccc(CN2CCCC(CNS(=O)(=O)N(C)C)C2)o1 (stereo not given),bacterial growth OD600,polymyxin B 0.75 µg/mL,0.813
Cc1ccccc1C1(CC(=O)N2CCN(C3CCCC3)CC2)CC(=O)N(Cc2cccnc2)C1=O (stereo not given),bacterial growth OD600,polymyxin B 0.75 µg/mL,0.778
CSc1ccccc1C(=O)N1CCOc2ccc(CN3CCN(c4ccccc4)CC3)cc2C1,bacterial growth OD600,polymyxin B 0.75 µg/mL,0.007
O=C([C@H]1C[C@@H]2C=C[C@H]1C2)N1CCc2onc(-c3cccc(F)c3)c2C1,bacterial growth OD600,polymyxin B 0.75 µg/mL,0.24

# Rewritten bar-delimited: 2 of the compounds above.
smiles | measurement | setting | value
COc1cccc(C(=O)N2CCc3c(cnc(C)c3CNC(=O)Cc3ccsc3)C2)c1OC | bacterial growth OD600 | polymyxin B 0.75 µg/mL | 0.757
FC(F)Oc1ccc(CN2CCOc3ccc(CN4CCC(Oc5cccnc5)CC4)cc3C2)cc1 | bacterial growth OD600 | polymyxin B 0.75 µg/mL | 0.402
